Assay results published in PMC4489722.
These are yes or no findings as the source states them, for the method shown. Binding seen in cells or lysates may run through a third protein. Some results given as binding are weak or reduced against the parent protein; the word gives no strength.

Sequences of proteins named here, by UniProt entry; tags and fusion partners are left off.
UniProt Q16666: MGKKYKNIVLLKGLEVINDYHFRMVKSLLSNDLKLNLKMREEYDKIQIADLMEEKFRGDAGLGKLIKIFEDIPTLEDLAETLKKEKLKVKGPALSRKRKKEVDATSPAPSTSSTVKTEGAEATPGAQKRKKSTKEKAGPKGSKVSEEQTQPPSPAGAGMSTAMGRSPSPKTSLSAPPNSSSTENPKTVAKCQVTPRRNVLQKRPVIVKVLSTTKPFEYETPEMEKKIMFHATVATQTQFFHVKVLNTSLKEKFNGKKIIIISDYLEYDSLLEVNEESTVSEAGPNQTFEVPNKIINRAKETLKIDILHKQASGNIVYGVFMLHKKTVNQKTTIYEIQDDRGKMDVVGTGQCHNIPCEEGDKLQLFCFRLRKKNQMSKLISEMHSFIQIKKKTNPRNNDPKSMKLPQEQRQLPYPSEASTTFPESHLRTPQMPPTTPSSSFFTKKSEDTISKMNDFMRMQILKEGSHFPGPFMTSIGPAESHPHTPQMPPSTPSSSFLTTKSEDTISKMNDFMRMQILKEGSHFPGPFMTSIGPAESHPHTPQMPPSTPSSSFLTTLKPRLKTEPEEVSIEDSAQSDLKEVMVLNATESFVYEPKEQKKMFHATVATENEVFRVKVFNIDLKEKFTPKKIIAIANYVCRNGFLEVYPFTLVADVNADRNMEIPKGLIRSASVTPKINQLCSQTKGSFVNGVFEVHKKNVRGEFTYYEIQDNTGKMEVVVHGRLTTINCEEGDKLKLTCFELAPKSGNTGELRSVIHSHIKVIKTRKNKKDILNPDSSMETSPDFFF
UniProt Q86WV6: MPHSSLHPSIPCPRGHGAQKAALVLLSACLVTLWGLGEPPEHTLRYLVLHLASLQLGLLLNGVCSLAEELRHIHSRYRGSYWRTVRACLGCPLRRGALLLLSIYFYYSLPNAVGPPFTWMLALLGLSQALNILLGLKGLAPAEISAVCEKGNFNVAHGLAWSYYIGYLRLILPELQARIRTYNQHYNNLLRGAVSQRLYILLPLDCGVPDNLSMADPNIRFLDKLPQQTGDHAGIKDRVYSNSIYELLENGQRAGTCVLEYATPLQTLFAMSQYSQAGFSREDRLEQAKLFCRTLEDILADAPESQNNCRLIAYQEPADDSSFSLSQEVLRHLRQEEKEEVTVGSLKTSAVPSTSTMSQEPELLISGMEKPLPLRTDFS
UniProt Q09472: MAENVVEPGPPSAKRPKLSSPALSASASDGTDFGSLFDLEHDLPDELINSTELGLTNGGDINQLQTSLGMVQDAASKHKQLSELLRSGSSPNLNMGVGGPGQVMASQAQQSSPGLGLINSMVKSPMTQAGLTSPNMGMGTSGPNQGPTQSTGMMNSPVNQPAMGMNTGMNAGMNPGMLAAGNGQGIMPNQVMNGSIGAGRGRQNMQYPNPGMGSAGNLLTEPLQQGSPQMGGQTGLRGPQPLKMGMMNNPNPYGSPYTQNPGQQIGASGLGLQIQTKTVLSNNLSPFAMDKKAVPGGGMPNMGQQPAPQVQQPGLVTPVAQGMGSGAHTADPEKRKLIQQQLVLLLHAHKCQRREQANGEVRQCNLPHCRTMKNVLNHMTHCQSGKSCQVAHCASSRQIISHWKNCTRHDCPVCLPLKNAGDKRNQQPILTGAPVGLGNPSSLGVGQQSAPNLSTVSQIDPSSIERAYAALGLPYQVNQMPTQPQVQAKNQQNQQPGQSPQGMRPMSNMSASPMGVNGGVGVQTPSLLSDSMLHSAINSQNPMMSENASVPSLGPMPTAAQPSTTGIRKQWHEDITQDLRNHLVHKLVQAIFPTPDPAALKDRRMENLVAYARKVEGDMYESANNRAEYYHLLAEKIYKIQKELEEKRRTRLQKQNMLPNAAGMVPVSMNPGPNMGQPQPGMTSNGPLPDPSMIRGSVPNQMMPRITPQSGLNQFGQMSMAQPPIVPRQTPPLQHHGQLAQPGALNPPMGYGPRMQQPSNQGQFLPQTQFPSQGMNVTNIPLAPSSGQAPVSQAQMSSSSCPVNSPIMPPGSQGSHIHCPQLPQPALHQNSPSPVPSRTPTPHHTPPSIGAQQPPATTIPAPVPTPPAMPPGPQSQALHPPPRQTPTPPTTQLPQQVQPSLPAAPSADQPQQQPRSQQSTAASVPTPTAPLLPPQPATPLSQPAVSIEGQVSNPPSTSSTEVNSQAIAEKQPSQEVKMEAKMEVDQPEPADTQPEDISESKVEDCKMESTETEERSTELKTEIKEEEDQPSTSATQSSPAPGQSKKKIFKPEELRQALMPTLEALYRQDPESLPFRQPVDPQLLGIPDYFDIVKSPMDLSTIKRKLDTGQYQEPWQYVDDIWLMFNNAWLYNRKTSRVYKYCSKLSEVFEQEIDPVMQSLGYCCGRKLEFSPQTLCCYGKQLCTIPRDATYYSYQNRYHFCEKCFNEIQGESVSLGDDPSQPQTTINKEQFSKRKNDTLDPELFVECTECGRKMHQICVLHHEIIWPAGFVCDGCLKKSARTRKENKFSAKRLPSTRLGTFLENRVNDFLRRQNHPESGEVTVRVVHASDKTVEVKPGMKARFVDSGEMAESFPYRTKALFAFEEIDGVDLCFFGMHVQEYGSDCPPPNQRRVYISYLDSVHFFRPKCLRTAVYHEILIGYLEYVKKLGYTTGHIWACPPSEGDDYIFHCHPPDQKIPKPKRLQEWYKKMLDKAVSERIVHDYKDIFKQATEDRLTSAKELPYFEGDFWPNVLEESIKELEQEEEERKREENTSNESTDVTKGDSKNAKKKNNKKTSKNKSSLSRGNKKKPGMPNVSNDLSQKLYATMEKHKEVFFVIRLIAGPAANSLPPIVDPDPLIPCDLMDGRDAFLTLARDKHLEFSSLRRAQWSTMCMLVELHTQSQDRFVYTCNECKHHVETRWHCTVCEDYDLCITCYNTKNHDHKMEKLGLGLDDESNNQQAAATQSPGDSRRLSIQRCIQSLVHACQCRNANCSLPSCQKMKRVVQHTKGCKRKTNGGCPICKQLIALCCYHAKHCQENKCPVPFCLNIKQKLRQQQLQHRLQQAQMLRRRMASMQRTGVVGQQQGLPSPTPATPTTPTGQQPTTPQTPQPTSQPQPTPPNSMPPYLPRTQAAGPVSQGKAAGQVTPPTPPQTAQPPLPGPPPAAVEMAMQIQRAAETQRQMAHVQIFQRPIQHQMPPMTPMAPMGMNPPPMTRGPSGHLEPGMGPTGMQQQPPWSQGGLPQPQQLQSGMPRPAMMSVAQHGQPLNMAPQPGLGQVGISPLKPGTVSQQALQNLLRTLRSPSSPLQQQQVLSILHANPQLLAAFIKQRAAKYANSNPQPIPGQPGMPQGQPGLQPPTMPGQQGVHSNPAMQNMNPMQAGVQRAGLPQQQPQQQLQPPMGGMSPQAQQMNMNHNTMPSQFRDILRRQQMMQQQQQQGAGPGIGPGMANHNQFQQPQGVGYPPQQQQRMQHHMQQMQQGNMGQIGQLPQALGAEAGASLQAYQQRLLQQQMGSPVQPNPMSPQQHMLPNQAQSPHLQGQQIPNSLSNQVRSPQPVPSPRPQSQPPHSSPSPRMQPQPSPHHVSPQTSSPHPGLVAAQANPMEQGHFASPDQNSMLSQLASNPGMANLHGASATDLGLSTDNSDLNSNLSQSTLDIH

Key:
[1] = molecular target: gamma-interferon-inducible protein 16 (IFI16) (human (endogenous in HMVEC-d, HFF, BCBL-1, BJAB)) (UniProt Q16666); assay: cross-linking
[2] = molecular target: STING (human (endogenous in HMVEC-d, HFF)) (UniProt Q86WV6); assay: co-IP; endogenous proteins, HFF whole cell lysates in NETN buffer, HSV-1 infected (1 PFU/cell; 30 min and 6 h p.i.); IP anti-STING, western blot for IFI16 and IRF-3
[3] = molecular target: STING (human (endogenous in HMVEC-d, HFF)) (UniProt Q86WV6); assay: co-IP; endogenous proteins, HMVEC-d whole cell lysates in NETN buffer, uninfected or KSHV infected (30 min to 24 h p.i.); untreated, Leptomycin B treated or Si-control cells; IP with anti-Ran, -ASC, -caspase-1, -p300 or -STING antibody at 4°C, western blot for IFI16
[4] = molecular target: histone acetyltransferase p300 (human (endogenous in HMVEC-d)) (UniProt Q09472); assay: as above

Measured: binding

gamma-interferon-inducible protein 16 (IFI16) (from UniProt Q16666 1-785)
binds: all assays above
